# Test results: ChEMBL document CHEMBL1124961, “Estrogen synthetase inhibitors. 2. Comparison of the in vitro aromatase inhibitory activity for a variety of nitrogen heterocycles substituted with diarylmethane or diarylmethanol groups” (J Med Chem, 1990)
# Biological target: T1, Aromatase (Rattus norvegicus, UniProt P22443)
# T1 sequence (P22443 whole entry): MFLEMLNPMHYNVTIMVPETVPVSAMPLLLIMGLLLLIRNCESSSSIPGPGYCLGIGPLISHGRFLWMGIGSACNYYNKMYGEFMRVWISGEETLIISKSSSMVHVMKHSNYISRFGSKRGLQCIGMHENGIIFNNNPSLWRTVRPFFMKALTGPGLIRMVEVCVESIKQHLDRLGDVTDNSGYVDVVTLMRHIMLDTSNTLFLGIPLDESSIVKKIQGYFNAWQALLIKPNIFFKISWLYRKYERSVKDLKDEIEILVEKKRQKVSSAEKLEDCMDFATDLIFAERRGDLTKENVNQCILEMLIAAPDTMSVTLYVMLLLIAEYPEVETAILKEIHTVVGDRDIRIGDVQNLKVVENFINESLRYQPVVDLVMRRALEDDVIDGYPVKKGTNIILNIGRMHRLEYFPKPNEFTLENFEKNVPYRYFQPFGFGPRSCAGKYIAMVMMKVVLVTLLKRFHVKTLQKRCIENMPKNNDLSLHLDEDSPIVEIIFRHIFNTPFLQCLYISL
row,SMILES,EC50
1,Clc1ccc(C(c2ccc(Cl)cc2)(c2cncs2)n2ccnc2)cc1,17 nM
2,OC(c1ccc(Cl)cc1)(c1ccc(Cl)cc1)c1ccccn1,> 5000 nM
3,Clc1ccc(C(c2ccc(Cl)cc2)c2ccc[nH]2)cc1,> 5000 nM
4,OC(c1ccc(Cl)cc1)(c1cccnc1)c1ccccc1Cl (stereo not given),> 2000 nM
5,OC(c1ccccc1)(c1cccnc1)c1ccc(Cl)cc1Cl (stereo not given),> 2000 nM
6,OC(c1ccc(Cl)cc1)(c1ccc(Cl)cc1)c1cncs1,9.6 nM
7,OC(c1ccc(Cl)cc1)(c1ccc(Cl)cc1)c1nnn[nH]1,> 5000 nM
8,Clc1ccc(C(c2ccc(Cl)cc2)N2CCCCC2)cc1,> 5000 nM
9,COc1ccc(C(O)(c2ccc(OC)cc2)c2cccnc2)cc1,> 2000 nM
10,Clc1ccc(C(c2ccc(Cl)cc2)n2nccn2)cc1,> 5000 nM
11,OC(c1ccc(Cl)cc1)(c1ccc(Cl)cc1)C1CCCNC1 (stereo not given),> 5000 nM
12,Clc1ccc(C(c2ccc(Cl)cc2)n2cccn2)cc1,> 2000 nM
13,Clc1ccc(C(c2ccc(Cl)cc2)c2ccccn2)cc1,> 5000 nM
14,OC(c1ccccc1)(c1ccc(Cl)cc1)c1cccnc1 (stereo not given),> 2000 nM
15,Clc1ccc(C(c2ccc(Cl)cc2)N2CCCC2)cc1,> 5000 nM
